The source of these data is publication PMC7350744.

Sequences of proteins named here, by UniProt entry; tags and fusion partners are left off.
UniProt O14497: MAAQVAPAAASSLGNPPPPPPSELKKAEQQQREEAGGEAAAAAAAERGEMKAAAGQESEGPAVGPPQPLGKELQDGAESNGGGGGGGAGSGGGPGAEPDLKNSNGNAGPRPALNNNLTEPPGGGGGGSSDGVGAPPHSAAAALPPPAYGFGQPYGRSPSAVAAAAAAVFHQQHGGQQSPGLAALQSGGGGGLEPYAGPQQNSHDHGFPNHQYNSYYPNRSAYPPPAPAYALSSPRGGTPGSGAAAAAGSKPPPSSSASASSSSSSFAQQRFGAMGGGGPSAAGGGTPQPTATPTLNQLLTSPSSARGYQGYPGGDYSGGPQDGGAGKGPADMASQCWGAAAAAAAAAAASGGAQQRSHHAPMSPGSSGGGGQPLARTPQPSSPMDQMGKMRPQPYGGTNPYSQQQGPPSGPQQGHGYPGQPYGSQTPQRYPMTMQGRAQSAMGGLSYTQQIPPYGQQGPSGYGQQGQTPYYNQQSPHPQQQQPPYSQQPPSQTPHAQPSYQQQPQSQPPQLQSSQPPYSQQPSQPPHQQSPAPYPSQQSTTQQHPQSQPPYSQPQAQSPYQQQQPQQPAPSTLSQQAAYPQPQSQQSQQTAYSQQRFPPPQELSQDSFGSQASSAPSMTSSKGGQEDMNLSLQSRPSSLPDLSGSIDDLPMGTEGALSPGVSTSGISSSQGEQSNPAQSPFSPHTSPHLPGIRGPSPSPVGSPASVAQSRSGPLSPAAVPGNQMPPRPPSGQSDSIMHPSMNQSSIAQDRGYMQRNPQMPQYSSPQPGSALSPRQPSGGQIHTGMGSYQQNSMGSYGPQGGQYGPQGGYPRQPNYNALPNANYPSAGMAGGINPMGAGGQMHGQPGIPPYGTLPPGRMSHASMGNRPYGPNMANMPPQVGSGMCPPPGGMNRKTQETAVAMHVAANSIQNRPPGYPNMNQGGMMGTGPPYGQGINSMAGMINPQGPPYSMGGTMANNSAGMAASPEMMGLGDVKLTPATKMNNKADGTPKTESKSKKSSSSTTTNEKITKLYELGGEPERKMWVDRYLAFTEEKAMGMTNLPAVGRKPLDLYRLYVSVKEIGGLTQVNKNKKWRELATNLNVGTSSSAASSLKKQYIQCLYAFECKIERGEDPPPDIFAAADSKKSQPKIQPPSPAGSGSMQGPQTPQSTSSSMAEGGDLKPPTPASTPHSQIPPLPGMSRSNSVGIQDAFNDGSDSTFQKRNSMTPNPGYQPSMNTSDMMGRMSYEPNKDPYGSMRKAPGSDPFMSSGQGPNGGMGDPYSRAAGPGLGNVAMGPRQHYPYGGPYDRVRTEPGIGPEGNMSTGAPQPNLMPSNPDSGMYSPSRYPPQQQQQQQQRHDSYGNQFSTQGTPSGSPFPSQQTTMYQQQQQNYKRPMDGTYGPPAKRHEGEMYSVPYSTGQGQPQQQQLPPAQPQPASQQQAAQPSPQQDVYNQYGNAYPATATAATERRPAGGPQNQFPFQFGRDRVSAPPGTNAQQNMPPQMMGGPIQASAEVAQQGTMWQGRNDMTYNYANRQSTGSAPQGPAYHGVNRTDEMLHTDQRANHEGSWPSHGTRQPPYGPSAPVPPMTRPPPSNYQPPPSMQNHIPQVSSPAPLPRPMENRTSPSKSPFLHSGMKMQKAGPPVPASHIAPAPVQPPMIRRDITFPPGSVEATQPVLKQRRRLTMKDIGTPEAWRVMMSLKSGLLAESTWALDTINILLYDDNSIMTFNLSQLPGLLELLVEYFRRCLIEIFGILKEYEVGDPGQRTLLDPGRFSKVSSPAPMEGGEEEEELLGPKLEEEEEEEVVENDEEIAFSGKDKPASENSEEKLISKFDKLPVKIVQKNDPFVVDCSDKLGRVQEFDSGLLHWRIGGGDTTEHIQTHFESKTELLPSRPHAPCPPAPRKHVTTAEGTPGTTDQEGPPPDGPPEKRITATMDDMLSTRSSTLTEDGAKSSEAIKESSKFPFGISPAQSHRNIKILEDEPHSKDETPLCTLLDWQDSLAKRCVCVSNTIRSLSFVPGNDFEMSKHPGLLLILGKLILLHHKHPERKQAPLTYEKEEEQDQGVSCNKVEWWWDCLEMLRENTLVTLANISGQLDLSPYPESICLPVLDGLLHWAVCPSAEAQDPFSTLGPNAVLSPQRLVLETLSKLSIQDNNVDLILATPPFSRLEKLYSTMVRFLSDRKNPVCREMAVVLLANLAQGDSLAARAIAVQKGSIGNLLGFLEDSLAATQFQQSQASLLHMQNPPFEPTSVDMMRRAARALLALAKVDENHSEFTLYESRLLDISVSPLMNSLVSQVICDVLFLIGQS

These are yes or no findings as the source states them, for the method shown. In cells and extracts the contact can be indirect. Some results given as binding are weak or reduced against the parent protein; the word gives no strength.

The experiment concerns the target ARID1A (human (endogenous in H9 hESCs)) (UniProt O14497). The experiment can be described thus: co-IP; endogenous proteins from H9 hESC lysates (undifferentiated T0, day 2 or day 6 of cardiac differentiation); Pierce Classic Magnetic IP/Co-IP Kit; detected by Western blotting; IP with anti-ARID1A antibody and, in the reverse direction, of T or MEF2C. (In general: A western blot detects proteins with antibodies after separation by electrophoresis.)

B1: TBXT (T) (protein, UniProt O15178 1-435)
chain: MSSPGTESAGKSLQYRVDHLLSAVENELQAGSEKGDPTERELRVGLEESELWLRFKELTNEMIVTKNGRRMFPVLKVNVSGLDPNAMYSFLLDFVAADNHRWKYVNGEWVPGGKPEPQAPSCVYIHPDSPNFGAHWMKAPVSFSKVKLTNKLNGGGQIMLNSLHKYEPRIHIVRVGGPQRMITSHCFPETQFIAVTAYQNEEITALKIKYNPFAKAFLDAKERSDHKEMMEEPGDSQQPGYSQWGWLLPGTSTLCPPANPHPQFGGALSLPSTHSCDRYPTLRSHRSSPYPSPYAHRNNSPTYSDNSPACLSMLQSHDNWSSLGMPAHPSMLPVSHNASPPTSSSQYPSLWSVSNGAVTPGSQAAAVSNGLGAQFFRGSPAHYTPLTHPVSAPSSSGSPLYEGAAAATDIVDSQYDAAAQGRLIASWTPVSPPSM
Turning to B1, the binding result is on record as “binds”.

B2: repressor element-1 silencing transcription/neuron-restrictive silencer factor (REST/NRSF) (protein, UniProt Q13127 1-1097)
chain: MATQVMGQSSGGGGLFTSSGNIGMALPNDMYDLHDLSKAELAAPQLIMLANVALTGEVNGSCCDYLVGEERQMAELMPVGDNNFSDSEEGEGLEESADIKGEPHGLENMELRSLELSVVEPQPVFEASGAPDIYSSNKDLPPETPGAEDKGKSSKTKPFRCKPCQYEAESEEQFVHHIRVHSAKKFFVEESAEKQAKARESGSSTAEEGDFSKGPIRCDRCGYNTNRYDHYTAHLKHHTRAGDNERVYKCIICTYTTVSEYHWRKHLRNHFPRKVYTCGKCNYFSDRKNNYVQHVRTHTGERPYKCELCPYSSSQKTHLTRHMRTHSGEKPFKCDQCSYVASNQHEVTRHARQVHNGPKPLNCPHCDYKTADRSNFKKHVELHVNPRQFNCPVCDYAASKKCNLQYHFKSKHPTCPNKTMDVSKVKLKKTKKREADLPDNITNEKTEIEQTKIKGDVAGKKNEKSVKAEKRDVSKEKKPSNNVSVIQVTTRTRKSVTEVKEMDVHTGSNSEKFSKTKKSKRKLEVDSHSLHGPVNDEESSTKKKKKVESKSKNNSQEVPKGDSKVEENKKQNTCMKKSTKKKTLKNKSSKKSSKPPQKEPVEKGSAQMDPPQMGPAPTEAVQKGPVQVEPPPPMEHAQMEGAQIRPAPDEPVQMEVVQEGPAQKELLPPVEPAQMVGAQIVLAHMELPPPMETAQTEVAQMGPAPMEPAQMEVAQVESAPMQVVQKEPVQMELSPPMEVVQKEPVQIELSPPMEVVQKEPVKIELSPPIEVVQKEPVQMELSPPMGVVQKEPAQREPPPPREPPLHMEPISKKPPLRKDKKEKSNMQSERARKEQVLIEVGLVPVKDSWLLKESVSTEDLSPPSPPLPKENLREEASGDQKLLNTGEGNKEAPLQKVGAEEADESLPGLAANINESTHISSSGQNLNTPEGETLNGKHQTDSIVCEMKMDTDQNTRENLTGINSTVEEPVSPMLPPSAVEEREAVSKTALASPPATMAANESQEIDEDEGIHSHEGSDLSDNMSEGSDDSGLHGARPVPQESSRKNAKEALAVKAAKGDFVCIFCDRSFRKGKDYSKHLNRHLVNVYYLEEAAQGQE
As to B2, the binding entry is listed as “binds”.
